These are yes or no findings as the source states them, for the method shown. Some results given as binding are weak or reduced against the parent protein; the word gives no strength.
Key:
[1] = molecular target: human FGF2 (human) (UniProt P09038); experiment: SPR, FGF2 binding activity and Kd compared for HEK 293 and CHO material
[2] = molecular target: human FGF2 (human) (UniProt P09038); experiment: SPR (BIACORE T200), hFGF2 immobilised on CM5 chip, analyte injected in five successive steps; concentrations not given
[3] = molecular target: human FGF2 (human) (UniProt P09038); experiment: SPR (BIACORE T200), hFGF2 immobilised on CM5 chip, sFGFR3 polypeptide as analyte, five successive injections; concentrations not given
[4] = molecular target: human FGF2 (human) (UniProt P09038); experiment: SPR (Biacore T200), immobilised hFGF2
[5] = molecular target: sFGFR3_Del4-D3 (human) (UniProt P22607); experiment: SPR (Biacore T200), immobilised sFGFR3_Del4-D3
[6] = molecular target: sFGFR3_Del4-D3 (human) (UniProt P22607); experiment: SPR (BIACORE T200), sFGFR3_Del4-D3 immobilised, hFGF2 as analyte; overlaid fit lines of the binding model

The chains behind the UniProt entries cited, without tags or fusion partners. Where a name states a change or a piece, a line headed by the entry shows the natural chain unless it says otherwise.
UniProt P09038: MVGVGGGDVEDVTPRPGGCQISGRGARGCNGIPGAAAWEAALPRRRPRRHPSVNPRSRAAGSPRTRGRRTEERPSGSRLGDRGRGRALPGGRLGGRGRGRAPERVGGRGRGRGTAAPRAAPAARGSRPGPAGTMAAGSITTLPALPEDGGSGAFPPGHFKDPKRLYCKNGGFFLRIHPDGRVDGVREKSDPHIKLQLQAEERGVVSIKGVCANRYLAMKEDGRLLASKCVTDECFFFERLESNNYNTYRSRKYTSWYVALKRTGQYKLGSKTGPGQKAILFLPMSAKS
UniProt P22607: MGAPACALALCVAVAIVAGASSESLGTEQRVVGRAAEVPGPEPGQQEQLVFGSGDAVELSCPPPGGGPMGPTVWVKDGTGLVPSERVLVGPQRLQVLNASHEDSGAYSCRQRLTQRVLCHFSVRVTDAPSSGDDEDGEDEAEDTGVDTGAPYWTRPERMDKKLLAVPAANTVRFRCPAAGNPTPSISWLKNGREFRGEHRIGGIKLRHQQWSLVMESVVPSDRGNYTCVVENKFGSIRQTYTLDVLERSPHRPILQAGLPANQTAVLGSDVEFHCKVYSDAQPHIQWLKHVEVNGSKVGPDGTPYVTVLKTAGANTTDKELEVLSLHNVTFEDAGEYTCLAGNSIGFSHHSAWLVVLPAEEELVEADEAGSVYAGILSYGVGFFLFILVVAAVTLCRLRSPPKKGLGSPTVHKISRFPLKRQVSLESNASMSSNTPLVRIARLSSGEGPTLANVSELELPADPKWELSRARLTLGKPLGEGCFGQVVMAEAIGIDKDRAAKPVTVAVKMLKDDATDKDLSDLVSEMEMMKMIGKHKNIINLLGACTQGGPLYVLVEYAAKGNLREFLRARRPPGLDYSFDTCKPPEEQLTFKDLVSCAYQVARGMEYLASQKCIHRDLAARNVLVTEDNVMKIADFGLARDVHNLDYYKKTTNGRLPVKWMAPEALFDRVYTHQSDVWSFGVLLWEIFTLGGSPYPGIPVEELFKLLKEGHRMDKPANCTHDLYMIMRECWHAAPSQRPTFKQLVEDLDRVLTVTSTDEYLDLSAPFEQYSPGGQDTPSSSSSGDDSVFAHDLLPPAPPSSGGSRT

Row | Substance | binding [1] | binding [2] | binding [3] | binding [4] | binding [5] | binding [6]
1 | sFGFR3_Del4 (from UniProt P22607 23-435) (receptor) | binds | binds | binds |  |  | 
2 | sFGFR3_Del1 (from UniProt P22607 23-806) (receptor) | binds |  | binds |  |  | 
3 | sFGFR3_Del4-C253S (from UniProt P22607 23-435) (receptor) |  | binds | binds | binds |  | 
4 | human FGF2 (from UniProt P09038 143-288) (ligand) |  |  |  |  | binds | binds
